According to PMC9258208:
Results are given in words; binding and its absence hold for the method and conditions named. In cells and extracts the contact can be indirect. Some binding calls cover weakened binding; strength is not graded here.

Amino acid sequences for entries named in this document (tags omitted).
UniProt Q9Y4A5: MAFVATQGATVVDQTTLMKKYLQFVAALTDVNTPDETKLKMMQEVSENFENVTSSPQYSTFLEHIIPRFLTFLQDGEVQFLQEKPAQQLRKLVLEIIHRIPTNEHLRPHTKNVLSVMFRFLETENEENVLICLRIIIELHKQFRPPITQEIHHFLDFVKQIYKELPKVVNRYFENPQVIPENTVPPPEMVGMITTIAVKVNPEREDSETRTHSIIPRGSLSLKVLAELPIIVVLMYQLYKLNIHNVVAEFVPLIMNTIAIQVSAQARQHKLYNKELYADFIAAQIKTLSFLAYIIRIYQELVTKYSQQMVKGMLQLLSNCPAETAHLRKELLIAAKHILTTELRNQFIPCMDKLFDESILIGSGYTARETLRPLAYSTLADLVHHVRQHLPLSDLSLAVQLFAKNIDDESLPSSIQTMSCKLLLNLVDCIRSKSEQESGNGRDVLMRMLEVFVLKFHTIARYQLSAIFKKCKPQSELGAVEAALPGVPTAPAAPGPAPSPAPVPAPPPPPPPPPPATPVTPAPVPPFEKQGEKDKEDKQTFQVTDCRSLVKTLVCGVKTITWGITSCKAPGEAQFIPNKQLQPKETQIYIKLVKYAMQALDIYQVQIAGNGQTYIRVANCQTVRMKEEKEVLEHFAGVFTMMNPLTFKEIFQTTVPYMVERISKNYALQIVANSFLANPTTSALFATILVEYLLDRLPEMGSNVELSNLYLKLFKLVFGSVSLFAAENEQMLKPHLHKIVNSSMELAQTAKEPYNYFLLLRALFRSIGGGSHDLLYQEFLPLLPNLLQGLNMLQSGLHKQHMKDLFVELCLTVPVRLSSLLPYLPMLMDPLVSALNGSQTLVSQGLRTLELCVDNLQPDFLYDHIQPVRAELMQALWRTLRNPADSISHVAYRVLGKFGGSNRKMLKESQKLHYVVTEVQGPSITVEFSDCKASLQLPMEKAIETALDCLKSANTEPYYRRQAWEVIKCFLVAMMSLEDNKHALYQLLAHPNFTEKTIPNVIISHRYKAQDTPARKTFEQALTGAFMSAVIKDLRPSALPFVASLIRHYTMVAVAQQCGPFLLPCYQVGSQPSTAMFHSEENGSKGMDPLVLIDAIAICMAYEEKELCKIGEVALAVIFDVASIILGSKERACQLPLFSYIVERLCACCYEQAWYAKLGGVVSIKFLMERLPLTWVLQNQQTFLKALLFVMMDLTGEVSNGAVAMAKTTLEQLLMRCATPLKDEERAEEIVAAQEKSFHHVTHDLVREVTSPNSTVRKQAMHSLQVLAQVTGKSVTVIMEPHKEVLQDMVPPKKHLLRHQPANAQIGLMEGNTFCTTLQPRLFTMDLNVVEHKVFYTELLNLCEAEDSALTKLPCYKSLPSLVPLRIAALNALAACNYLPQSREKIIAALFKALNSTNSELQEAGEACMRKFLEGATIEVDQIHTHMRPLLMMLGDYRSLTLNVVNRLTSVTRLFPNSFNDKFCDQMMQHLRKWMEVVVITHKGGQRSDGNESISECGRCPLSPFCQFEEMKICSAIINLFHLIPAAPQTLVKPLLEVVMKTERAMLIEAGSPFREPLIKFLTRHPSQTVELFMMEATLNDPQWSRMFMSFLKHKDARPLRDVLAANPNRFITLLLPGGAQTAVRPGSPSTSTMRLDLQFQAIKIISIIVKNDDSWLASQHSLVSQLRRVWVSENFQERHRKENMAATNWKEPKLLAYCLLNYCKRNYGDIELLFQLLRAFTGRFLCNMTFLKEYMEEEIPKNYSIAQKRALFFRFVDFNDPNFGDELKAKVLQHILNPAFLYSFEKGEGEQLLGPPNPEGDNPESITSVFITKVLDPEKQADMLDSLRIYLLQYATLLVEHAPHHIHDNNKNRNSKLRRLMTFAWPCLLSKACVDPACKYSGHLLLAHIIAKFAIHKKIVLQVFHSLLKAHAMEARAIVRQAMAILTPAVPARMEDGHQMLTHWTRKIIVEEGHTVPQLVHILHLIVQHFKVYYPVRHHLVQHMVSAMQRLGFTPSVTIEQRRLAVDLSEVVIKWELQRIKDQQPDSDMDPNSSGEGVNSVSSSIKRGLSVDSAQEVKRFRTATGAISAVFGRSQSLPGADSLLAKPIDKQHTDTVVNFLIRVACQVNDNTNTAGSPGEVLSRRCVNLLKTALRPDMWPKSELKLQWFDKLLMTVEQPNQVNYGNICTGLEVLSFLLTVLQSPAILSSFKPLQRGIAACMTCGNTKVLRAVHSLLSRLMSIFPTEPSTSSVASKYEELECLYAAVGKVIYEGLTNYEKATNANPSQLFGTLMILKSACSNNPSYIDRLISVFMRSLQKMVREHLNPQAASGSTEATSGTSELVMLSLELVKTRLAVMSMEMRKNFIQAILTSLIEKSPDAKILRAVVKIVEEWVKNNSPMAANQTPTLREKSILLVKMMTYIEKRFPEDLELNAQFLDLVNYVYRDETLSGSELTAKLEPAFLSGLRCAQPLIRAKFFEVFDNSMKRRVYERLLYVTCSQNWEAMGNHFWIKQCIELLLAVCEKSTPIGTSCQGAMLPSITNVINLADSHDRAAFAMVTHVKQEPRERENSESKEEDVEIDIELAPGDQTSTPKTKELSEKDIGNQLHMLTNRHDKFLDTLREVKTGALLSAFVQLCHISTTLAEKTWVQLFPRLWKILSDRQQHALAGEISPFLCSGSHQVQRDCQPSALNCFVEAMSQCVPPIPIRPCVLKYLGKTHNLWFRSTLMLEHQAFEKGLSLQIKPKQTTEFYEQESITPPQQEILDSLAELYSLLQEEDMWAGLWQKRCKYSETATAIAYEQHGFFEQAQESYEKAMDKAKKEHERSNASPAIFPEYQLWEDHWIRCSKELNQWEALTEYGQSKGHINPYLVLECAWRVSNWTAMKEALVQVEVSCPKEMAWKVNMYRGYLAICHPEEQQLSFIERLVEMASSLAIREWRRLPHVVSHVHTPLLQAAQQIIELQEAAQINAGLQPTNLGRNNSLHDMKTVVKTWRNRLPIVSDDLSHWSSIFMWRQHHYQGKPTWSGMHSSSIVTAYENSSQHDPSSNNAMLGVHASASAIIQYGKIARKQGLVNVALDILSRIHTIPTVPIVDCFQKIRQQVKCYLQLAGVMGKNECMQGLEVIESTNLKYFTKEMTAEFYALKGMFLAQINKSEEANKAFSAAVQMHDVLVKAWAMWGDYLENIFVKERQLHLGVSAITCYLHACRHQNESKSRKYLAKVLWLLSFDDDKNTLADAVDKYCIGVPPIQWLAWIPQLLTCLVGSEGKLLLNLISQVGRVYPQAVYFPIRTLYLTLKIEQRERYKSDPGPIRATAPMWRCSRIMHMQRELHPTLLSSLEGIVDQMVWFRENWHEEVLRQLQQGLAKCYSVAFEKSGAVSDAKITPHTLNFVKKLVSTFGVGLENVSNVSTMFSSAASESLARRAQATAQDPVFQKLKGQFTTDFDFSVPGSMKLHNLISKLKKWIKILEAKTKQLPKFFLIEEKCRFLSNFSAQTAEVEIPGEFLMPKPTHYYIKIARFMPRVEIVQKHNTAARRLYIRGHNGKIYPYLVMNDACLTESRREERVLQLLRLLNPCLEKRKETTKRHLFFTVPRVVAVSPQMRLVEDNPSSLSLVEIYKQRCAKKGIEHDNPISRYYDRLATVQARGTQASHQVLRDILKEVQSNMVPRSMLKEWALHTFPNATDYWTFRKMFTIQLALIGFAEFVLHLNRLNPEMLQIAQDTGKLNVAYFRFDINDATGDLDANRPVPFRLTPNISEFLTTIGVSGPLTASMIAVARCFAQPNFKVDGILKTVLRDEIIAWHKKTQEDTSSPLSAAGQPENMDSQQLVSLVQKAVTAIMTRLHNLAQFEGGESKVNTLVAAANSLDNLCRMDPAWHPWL
UniProt P84022: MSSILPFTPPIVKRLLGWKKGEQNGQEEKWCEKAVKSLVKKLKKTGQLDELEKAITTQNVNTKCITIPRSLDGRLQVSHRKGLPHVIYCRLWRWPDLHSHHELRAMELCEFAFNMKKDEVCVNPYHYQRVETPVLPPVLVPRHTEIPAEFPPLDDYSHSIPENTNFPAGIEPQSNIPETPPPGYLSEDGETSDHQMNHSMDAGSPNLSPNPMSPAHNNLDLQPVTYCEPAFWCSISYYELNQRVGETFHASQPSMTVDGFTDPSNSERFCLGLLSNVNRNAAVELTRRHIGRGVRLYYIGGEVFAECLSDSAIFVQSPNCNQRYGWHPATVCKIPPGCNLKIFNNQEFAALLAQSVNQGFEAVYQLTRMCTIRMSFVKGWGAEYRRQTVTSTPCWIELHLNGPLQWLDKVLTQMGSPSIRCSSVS
UniProt P01106: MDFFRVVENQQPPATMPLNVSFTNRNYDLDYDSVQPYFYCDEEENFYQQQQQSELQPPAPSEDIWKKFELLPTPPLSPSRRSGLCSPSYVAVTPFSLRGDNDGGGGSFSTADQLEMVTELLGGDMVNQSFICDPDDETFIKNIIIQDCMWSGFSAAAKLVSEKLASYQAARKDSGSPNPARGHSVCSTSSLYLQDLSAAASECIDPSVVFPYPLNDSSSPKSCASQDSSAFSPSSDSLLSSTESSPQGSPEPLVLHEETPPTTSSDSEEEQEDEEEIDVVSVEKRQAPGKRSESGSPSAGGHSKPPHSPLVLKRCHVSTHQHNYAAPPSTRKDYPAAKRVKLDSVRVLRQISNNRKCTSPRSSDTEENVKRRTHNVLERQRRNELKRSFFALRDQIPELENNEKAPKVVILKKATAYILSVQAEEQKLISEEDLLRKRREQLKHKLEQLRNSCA

Columns and labels:
[1] = target: TRRAP (human (endogenous in MDA-MB-231)) (UniProt Q9Y4A5); assay: co-IP; endogenous proteins; MDA-MB-231 cells stably expressing Smyca or Smyca shRNA; RIPA lysates
[2] = target: Smad3 (human (endogenous in MDA-MB-231 and M10)) (UniProt P84022); assay: co-IP; endogenous proteins; MDA-MB-231 cells stably expressing Smyca, treated with 5 ng/ml TGF-β for 2 h

| Substance | binding [1] | binding [2] |
| --- | --- | --- |
| c-Myc (from UniProt P01106 1-454) | binds |  |
| c-Myc (from UniProt P01106 1-454) (other; other documents disagree on this pair) |  | binds |
